Laboratory results published in PubChem BioAssay AID1296 (Columbia University Molecular Screening Center, 2008).
Among all 130,000 compounds or so, about 1,000 (0.77%) were called active. Inconclusive results, whose numbers are uncertain, are shown with a selection of clear calls.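 Rule for the calls: active = activation at 2 µM above a set limit, confirmed on inspection of the cell images; inconclusive = above the set limit but not confirmed on image inspection; inactive = the rest.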

Experiment: activators of insulin promoter-driven GFP, primary screen, imaging, TRM-6 cells (human fetal islet line), eGFP reporter, cell count (AID 1296;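 note: share of cells whose green reporter signal exceeds an intensity cutoff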)
Conditions: at 2 µM, stronger effect = higher value, plate-scaled: unstimulated 0, stimulated control 100
Method in brief: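 Assay system: TRM-6 insulin promoter–eGFP reporter cells / Input: 1,000 cells per well / Medium: Low-glucose (5.5 mM) medium with tamoxifen / Also added: tamoxifen inducer, 0.75 µM, in seeding medium / Timing: overnight tamoxifen, then two-day compound incubation at 37 °C / Signal: automated fluorescence imaging of paraformaldehyde-fixed, Hoechst-counterstained cells, green channel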

Row | SMILES | activation
1 | Cc1cc(S(=O)(=O)NCC(C)C)ccc1OCC(=O)NCc1ccccn1 | inconclusive: 97.4%
2 | O=C(N1CCCCCC1)N1CCN(C(=O)N2CCOCC2)CC1 | active: 488%
3 | Cc1ccc(NC(=O)C(Cc2ccccc2)NC(=O)c2ccco2)cc1 (centres undefined) | inconclusive: 78.6%
4 | CCOC(=O)c1cc2c(n(-c3ccccc3)c1=O)CC(C)(C)CC2=O | inconclusive: 420%
5 | NC(=O)c1ccccc1NS(=O)(=O)c1cccs1 | inconclusive: 462%
6 | CC1Cc2nc(SCC(=O)OCc3ccccc3)n(C)c(=O)c2S1 (centres undefined) | inactive: -71.4%
7 | CCC(C)NC(=O)c1nn(C)c(=O)c2ccccc12 (centres undefined) | inactive: -5.56%
8 | O=C(CN(Cc1cccs1)C(=O)CNS(=O)(=O)c1ccc(F)cc1)NCc1ccco1 | active: 171%
9 | CC1(C)CC2CC(C)(CN2C(=O)CN2C(=O)c3ccccc3C2=O)C1 (centres undefined) | inconclusive: 425%
10 | N#CC(C#N)=C1C=CC=CN1/C(=C\c1ccco1)C(=O)c1ccc(Br)cc1 | inconclusive: 220% [cytotoxic]
11 | CCCNC(=O)c1nnsc1S(=O)c1ccc(Cl)cc1 (centres undefined) | inconclusive: 527%
12 | O=C1C=CC(=O)N1c1ccc(OC(F)F)cc1 | inconclusive: 590% [cytotoxic]
13 | Clc1ccc(-n2ncc3c(NCC4CCCO4)ncnc32)cc1 (centres undefined) | inactive: 0%
14 | O=S(=O)(c1cccc(S(=O)(=O)N2CCC(N3CCCCC3)CC2)c1)N1CCOCC1 | active: 631%
15 | Clc1cccc(Cl)c1-c1nnc2ccc(N3CCOCC3)nn12 | inactive: 181%
16 | O=C(CSc1nnc2n(C3CCCC3)c(=O)c3ccccc3n12)N1CCCCCC1 | active: 121%
17 | CCOC(=O)CSc1nc(C)cc(C)c1C#N | inconclusive: 507%
18 | CN1C(=O)N(C)C2(CC1(C)C)CC(C)(C)N(C)C(=O)N2C | inconclusive: 175%
19 | Cc1n[nH]c(=O)nc1N/N=C/c1ccc(O)c([N+](=O)[O-])c1 | inconclusive: 207%
20 | Cc1ccc(C(=O)N/C(=C\c2cccs2)C(=O)NCCc2ccccn2)cc1C | active: 392%
21 | COc1ccc(CCNC(=O)Cn2nc([N+](=O)[O-])c(Br)c2C)cc1OC | inactive: 0%
22 | COc1cccc2c1C(=O)c1c(O)c3c(c(O)c1C2=O)C[C@@](O)(C(=O)CO)C[C@@H]3O[C@H]1C[C@H](N)[C@H](O)[C@H](C)O1 | active: 354%
23 | COC(=O)c1cnc(SC)nc1C | inconclusive: 163%

Single entries from the entries so far:
For activation, `O=S(=O)(c1cccc(S(=O)(=O)N2CCC(N3CCCCC3)CC2)c1)N1CCOCC1` has active: 631%
For activation, `Cc1ccc(NC(=O)C(Cc2ccccc2)NC(=O)c2ccco2)cc1` (centres undefined) has inconclusive: 78.6%
For activation, `O=C(CSc1nnc2n(C3CCCC3)c(=O)c3ccccc3n12)N1CCCCCC1` has active: 121%
For activation, `CCOC(=O)c1cc2c(n(-c3ccccc3)c1=O)CC(C)(C)CC2=O` has inconclusive: 420%
For activation, `O=C(N1CCCCCC1)N1CCN(C(=O)N2CCOCC2)CC1` has active: 488%

Additional structures follow.

Row | SMILES | activation
24 | CSc1nn2cc(CCN3CCOCC3)c(-c3ccc(F)cc3)nc2c1C#N | inconclusive: 156%
25 | COc1ccc(NC2CC(=O)N(c3cccc(C)c3)C2=O)cc1 (centres undefined) | active: 600%
26 | O=C(CCN1CCCCC1)Nc1ccc(Br)cc1 | inconclusive: 500%
27 | C/C(=N\OCC(=O)Nn1c(=O)[nH]c2ccccc2c1=O)c1ccccc1 | inactive: -5.56%
28 | CN(c1ccccc1C(=O)Nc1cccc(Cl)c1Cl)S(C)(=O)=O | inconclusive: 79.3%
29 | COc1ccc(C(=O)Nc2ccccc2N2CCN(C(=O)C(C)C)CC2)cc1Cl | inconclusive: 475%
30 | C[C@H](Nc1ncnc2sc3c(c12)CCC3)C(=O)O | inconclusive: 80.6%
31 | Nc1c(C(=O)O)cnc2c(-c3ccc(Cl)cc3)cnn12 | inconclusive: 247%
32 | N#Cc1c(NC(=S)NC(=O)c2ccccc2)sc2c1CCN(CCc1ccccc1)C2 | active: 270%
33 | COc1ccccc1N1CCN(/N=C/c2cc([N+](=O)[O-])ccc2Cl)CC1 | inconclusive: 159%
34 | N#C/C(=C\c1ccccn1)c1nc2ccccc2s1 | inconclusive: 362%
35 | CC(=O)c1cccc(NC(=O)N2CCCC2C(=O)Nc2ccc3c(c2)OCCO3)c1 (centres undefined) | active: 493%
36 | O=C(c1nn(Cc2ccccc2)c(=O)c2ccccc12)N1CCc2ccccc2C1 | inconclusive: 106%
37 | CCOC(=O)COc1ccc(S(=O)(=O)Nc2ccc3c(c2)OCCO3)cc1 | active: 460%
38 | O=C(CN1C(=O)C2C3C=CC(C3)C2C1=O)Nc1nc(-c2ccccn2)cs1 (centres undefined) | inconclusive: 81.2% [cytotoxic]
39 | Cc1cc(C)cc(OC(=O)CS(=O)c2ccc(C(F)(F)F)cc2[N+](=O)[O-])c1 (centres undefined) | inconclusive: 446%
40 | COc1ccc(OC)c(/C=N/N(C)c2ccccc2)c1 | active: 132%
41 | O=[N+]([O-])c1cc(CN2CCN(c3ccccc3)CC2)c(O)c2ncccc12 | active: 330%
42 | CCOC(=O)CCc1c(C)c(C#N)c2nc3ccccc3n2c1-n1ccnc1C | inconclusive: 436%
43 | COc1ccc2[nH]c3nc(SC(C)C)nnc3c2c1 | inconclusive: 197%
44 | CCOC(=O)C(NC(=O)CC(C)C)(Nc1cc(C)on1)C(F)(F)F (centres undefined) | inconclusive: 154%
45 | Cc1c(/C=N\NC(=O)c2cccc(F)c2)cnn1C | inconclusive: 379%
46 | Cn1ncc(C#N)c1NC(=O)C1CC(c2ccc(Cl)c(Cl)c2)=NO1 (centres undefined) | inconclusive: 143%

Row | SMILES | activation
47 | Oc1ccc2ccccc2c1C=Nc1cc(C(F)(F)F)ccc1N1CCCC1 | inactive: -7.14%
48 | CCOc1ccc(C2CC(c3c(O)c4ccccc4oc3=O)=NN2c2ccccc2)cc1OC (centres undefined) | inconclusive: 338%
49 | COc1ccc(CC(C(=O)Nc2cccc(F)c2)c2nn[nH]n2)c(OC)c1 (centres undefined) | inconclusive: 143%
50 | COc1ccc(C(=O)/C=C(\C)Nc2ccc3c(c2)OCO3)cc1 | inconclusive: 147%
51 | O=C(Nc1ccc(OC(F)F)c(Cl)c1)Nc1ccc2c(c1)OCO2 | inconclusive: 510%
52 | CCCCN1C(=O)/C(=C/C=C2/CC(C)(C)CN2C)SC1=S | active: 270%
53 | Cc1c(C(=O)OC2CCCC2)[nH]c2c1C(=O)CC(c1ccco1)C2 (centres undefined) | inconclusive: 360% [cytotoxic]
54 | CCOc1ccc2nc(N(CCN(CC)CC)C(=O)c3ccc([N+](=O)[O-])cc3)sc2c1 | inconclusive: 82.3%
55 | CC(C)NCCOCCSc1ccc(Cl)cc1 | inconclusive: 132%
56 | C/C(N)=C(/C#N)C(=O)COC(=O)[C@@H](NC(=O)c1ccccc1Cl)C(C)C | inconclusive: 164%
57 | CC1CN(C(=O)CSc2nc(-c3ccc(F)cc3)cs2)CC(C)O1 (centres undefined) | inconclusive: 89.3%
58 | CCn1nccc1C(=O)Nc1ccc(Cl)cn1 | inconclusive: 625%
59 | CC(C)CNC(=O)CC(=O)NN=C1CCCC1 | inactive: -7.14%
60 | O=C1OCC2=C1C(c1ccc(F)cc1)c1cc3c(cc1N2)OCCO3 (centres undefined) | inactive: 127%
61 | COc1cc(C(=O)N[C@H](C(=O)NC(C)C23CC4CC(CC(C4)C2)C3)C(C)C)cc(OC)c1OC (some centres undefined) | inactive: -2.86%
62 | COc1ccc2[nH]c(=O)c(CN(C(=O)c3ccccn3)c3ccccc3)cc2c1 | active: 200%
63 | CC1C/C(=C/c2ccncc2)C(=O)/C(=C/c2ccncc2)C1 (centres undefined) | inconclusive: 567% [cytotoxic]
64 | O=S(=O)(N1CCOCC1)n1c(Cc2ccccc2)nc2ccccc21 | inactive: -70.4%
65 | Cc1ccc(-n2nc(-c3ccccc3)cc2Nc2ccccc2N)cc1 | inconclusive: 271%
66 | CC(OC(=O)c1ccncc1)C(=O)Nc1cc(S(=O)(=O)N2CCCCC2)ccc1Cl (centres undefined) | inactive: -6.45%
67 | Cn1ncc2c(NCc3cccc(C(F)(F)F)c3)c(C(=O)O)cnc21 | inconclusive: 171%
68 | NC(=O)C1(N2CCCCC2)CCN(C(=S)Nc2ccc(Cl)cc2)CC1 | inconclusive: 137%
69 | Cc1nn(Cc2ccc(Cl)cc2Cl)c(C)c1NC(=O)NC12CC3CC(CC(C3)C1)C2 | inconclusive: 317%

Row | SMILES | activation
70 | COc1ccc(OC)c(N2Cc3cc(C)c(C)cc3C2)c1 | inactive: 5.29%
71 | CN(C(=O)CCc1nc2ccccc2s1)c1ccccc1 | inconclusive: 158%
72 | CCCCN=C1NN=C(c2cc3ccccc3o2)CS1 | inactive: 8.11%
73 | Brc1ccc(C2=Nn3c(nnc3-c3n[nH]c4c3CCC4)SC2)cc1 | inconclusive: 558% [cytotoxic]
74 | CCS(=O)(=O)c1ccc(N=Nc2ccc(O)c3ncccc23)c(OC)c1 | active: 625%
75 | COC(=O)c1c(-c2ccccc2Cl)noc1/C=C/N(C)C | inactive: 115%
76 | COCC(C)NC(=O)c1ccccc1OC(C)=O (centres undefined) | inconclusive: 500%
77 | Cc1ccc(-c2n[nH]c(=S)n2/N=C/c2c(C)nn(-c3ccccc3)c2C)cc1 | inactive: -6.67%
78 | COC(=O)c1cc2sccc2n1CC(=O)N1CCCc2ccccc21 | active: 193%
79 | COc1ccc(-c2c(C)oc3c(CN4CCN(C)CC4)c(O)ccc3c2=O)cc1 | inactive: 125%
80 | C=CCn1c(CCNC(=O)c2cccs2)nnc1SCC(=O)Nc1cccc(F)c1 | inconclusive: 114% [cytotoxic]
81 | CCOC(=O)c1[nH]c2c(c1C)C(=O)CC(c1ccc(F)cc1)C2 (centres undefined) | inconclusive: 414% [cytotoxic]
82 | Cc1ccc2c(c1)N(C(=O)c1ccco1)C(C)(C)c1ssc(=S)c1-2 | inconclusive: 77.8%
83 | CC1=NN(c2ccc(C)c(C)c2)C(=O)/C1=C\C=C\c1ccc([N+](=O)[O-])o1 | inconclusive: 331%
84 | CC(C)C(CCNC(=O)CN1C(=O)c2ccccc2C1=O)c1ccco1 (centres undefined) | inconclusive: 78.6%
85 | COc1nc(N)c(S(=O)(=O)c2ccc(C)cc2)cc1C#N | active: 197%
86 | CCc1cccc(Nc2cc(C)nc3nc(C)nn23)c1 | inactive: -37.5%
87 | COc1cc([N+](=O)[O-])cc(/C=N/NC(=O)c2ccc(NC(=O)c3ccc(C)cc3)cc2)c1O | inconclusive: 459% [cytotoxic]
88 | Cc1ccc(S(=O)(=O)NC(CC(=O)n2nc(C)cc2C)c2ccccc2)cc1 (centres undefined) | inconclusive: 76.8%
89 | Cc1ccc(S(=O)(=O)/C(C#N)=C/c2c(N3CC(C)OC(C)C3)nc3c(C)cccn3c2=O)cc1 (centres undefined) | inactive: -3.45%

Looked up one by one from above:
Row | SMILES | activation
51 | O=C(Nc1ccc(OC(F)F)c(Cl)c1)Nc1ccc2c(c1)OCO2 | inconclusive: 510%
81 | CCOC(=O)c1[nH]c2c(c1C)C(=O)CC(c1ccc(F)cc1)C2 (centres undefined) | inconclusive: 414% [cytotoxic]
